These are yes or no findings as the source states them, for the method shown. In cells and extracts the contact can be indirect. Some binding calls cover weakened binding; strength is not graded here.

From article PMC8822707 come the findings set out here.

In the assay the target is T1, Smad4 (human (endogenous in LoVo)), Q13485.
T1 chain: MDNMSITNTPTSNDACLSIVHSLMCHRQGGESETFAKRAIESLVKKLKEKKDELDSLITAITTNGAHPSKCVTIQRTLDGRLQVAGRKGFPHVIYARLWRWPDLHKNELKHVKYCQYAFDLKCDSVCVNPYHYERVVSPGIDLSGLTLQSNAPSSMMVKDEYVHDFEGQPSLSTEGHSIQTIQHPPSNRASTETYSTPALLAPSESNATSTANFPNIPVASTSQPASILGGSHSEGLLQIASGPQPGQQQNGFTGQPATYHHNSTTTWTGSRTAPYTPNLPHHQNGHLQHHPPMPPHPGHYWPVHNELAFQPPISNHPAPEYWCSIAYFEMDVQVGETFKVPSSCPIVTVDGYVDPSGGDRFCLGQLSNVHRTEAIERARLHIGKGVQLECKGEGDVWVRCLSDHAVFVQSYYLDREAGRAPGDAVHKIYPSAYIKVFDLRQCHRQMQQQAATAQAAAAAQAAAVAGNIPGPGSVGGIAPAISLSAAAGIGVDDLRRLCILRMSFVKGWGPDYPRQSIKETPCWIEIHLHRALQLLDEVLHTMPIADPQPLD
Description: co-IP; Smad4 antibody (1 μg) on protein A/G beads, incubated with LoVo cell lysates (800 μg protein); lysis buffer 50 mM Tris-HCl pH 7.5, 150 mM NaCl, 0.5% NP-40; wash buffer with 0.1% NP-40; western blot of Smad2 and Smad3; cells with circPTEN1 knockdown or reintroduction, treated with 5 ng/mL TGF-β1 for 1 h. As to conditions: remark: other sources report otherwise.

B1: Smad2, Q15796 1-467 (protein)
chain: MSSILPFTPPVVKRLLGWKKSAGGSGGAGGGEQNGQEEKWCEKAVKSLVKKLKKTGRLDELEKAITTQNCNTKCVTIPSTCSEIWGLSTPNTIDQWDTTGLYSFSEQTRSLDGRLQVSHRKGLPHVIYCRLWRWPDLHSHHELKAIENCEYAFNLKKDEVCVNPYHYQRVETPVLPPVLVPRHTEILTELPPLDDYTHSIPENTNFPAGIEPQSNYIPETPPPGYISEDGETSDQQLNQSMDTGSPAELSPTTLSPVNHSLDLQPVTYSEPAFWCSIAYYELNQRVGETFHASQPSLTVDGFTDPSNSERFCLGLLSNVNRNATVEMTRRHIGRGVRLYYIGGEVFAECLSDSAIFVQSPNCNQRYGWHPATVCKIPPGCNLKIFNNQEFAALLAQSVNQGFEAVYQLTRMCTIRMSFVKGWGAEYRRQTVTSTPCWIELHLNGPLQWLDKVLTQMGSPSVRCSSMS
Turning to B1, the binding entry is reported as “binds”.

B2: Smad3, P84022 1-425 (protein)
chain: MSSILPFTPPIVKRLLGWKKGEQNGQEEKWCEKAVKSLVKKLKKTGQLDELEKAITTQNVNTKCITIPRSLDGRLQVSHRKGLPHVIYCRLWRWPDLHSHHELRAMELCEFAFNMKKDEVCVNPYHYQRVETPVLPPVLVPRHTEIPAEFPPLDDYSHSIPENTNFPAGIEPQSNIPETPPPGYLSEDGETSDHQMNHSMDAGSPNLSPNPMSPAHNNLDLQPVTYCEPAFWCSISYYELNQRVGETFHASQPSMTVDGFTDPSNSERFCLGLLSNVNRNAAVELTRRHIGRGVRLYYIGGEVFAECLSDSAIFVQSPNCNQRYGWHPATVCKIPPGCNLKIFNNQEFAALLAQSVNQGFEAVYQLTRMCTIRMSFVKGWGAEYRRQTVTSTPCWIELHLNGPLQWLDKVLTQMGSPSIRCSSVS
In the case of B2, the binding entry is “binds”.
